Some test systems named below: AKR1C1 (human); ALB (human); ALDH3A1 (human); ALDOC (human); ALG13 (human); ALOX15 (human); ALOX15B (human); ALOX5 (human); ALOX5AP (human); ALS2CL (human).
Common to all, as to assay: protein microarray (ProtoArray v5.0), streptavidin-Alexa Fluor 647
Details in all cases: 3'-biotin; 20 mM Tris (pH 7.5), 5 mM MgCl2, 100 mM KCl, 0.1% Tween-20, A/T-rich and random oligonucleotide blockers; temperature not stated; high values mean tight binding

Values joined by “and” are separate entries in the source; they are usually repeats but may differ in a detail not shown here. Equal values may be shown once. Some of the results follow.

Consider “GGTGACAGGGGTATGGGGAGGGG [G4-2 biotinylated (Ct1)]”, for which the binding signal with AKR1C1 (human) was -0.391 z-score; in the test on ALB (human), -0.373 z-score and -0.395 z-score; in the test on ALDH3A1 (human) it was -0.376 z-score; in the test on ALDOC (human), -0.373 z-score; in the test with ALG13 (human) it was -0.382 z-score; in the test on ALOX15 (human), -0.372 z-score. Besides, the binding signal in the test with ALOX15B (human) is -0.396 z-score; with ALOX5 (human) it was -0.386 z-score; with ALOX5AP (human) it was -0.369 z-score; in the test on ALS2CL (human), -0.363 z-score.

The values above are taken from publication PMC5996148.
